These are yes or no findings as the source states them, for the method shown.
Columns and labels:
human MER (human) = human MER (human) (UniProt Q12866); experiment: flow cytometry, HEK-293F cells transfected with full length human MER, 4-fold dilutions of antibody, PE-anti-human IgG F(ab')2
human TYRO3 (human) = human TYRO3 (human) (UniProt Q06418); experiment: flow cytometry, HEK-293F cells transfected with full length human TYRO3, 4-fold dilutions of antibody, PE-anti-human IgG F(ab')2
[1] = target: Homo sapiens AXL-Mus musculus FN2 domain (p33-AXL-mFN2) (human-mouse chimera) (UniProt P30530); experiment: flow cytometry, 1 µg/mL antibody, HEK293F cells expressing hsAxl-mmFN2 (human AXL with the mouse FN2 domain), PE-anti-human IgG
[2] = target: Homo sapiens AXL-Mus musculus FN2 domain (p33-AXL-mFN2) (human-mouse chimera) (UniProt P30530); experiment: flow cytometry, HEK293F cells expressing the chimera

Amino acid sequences for entries named in this document (tags omitted). A change or cut given only in a name is not applied to a line headed by its entry. Residues count along the entry.
UniProt Q12866, residues 21-999: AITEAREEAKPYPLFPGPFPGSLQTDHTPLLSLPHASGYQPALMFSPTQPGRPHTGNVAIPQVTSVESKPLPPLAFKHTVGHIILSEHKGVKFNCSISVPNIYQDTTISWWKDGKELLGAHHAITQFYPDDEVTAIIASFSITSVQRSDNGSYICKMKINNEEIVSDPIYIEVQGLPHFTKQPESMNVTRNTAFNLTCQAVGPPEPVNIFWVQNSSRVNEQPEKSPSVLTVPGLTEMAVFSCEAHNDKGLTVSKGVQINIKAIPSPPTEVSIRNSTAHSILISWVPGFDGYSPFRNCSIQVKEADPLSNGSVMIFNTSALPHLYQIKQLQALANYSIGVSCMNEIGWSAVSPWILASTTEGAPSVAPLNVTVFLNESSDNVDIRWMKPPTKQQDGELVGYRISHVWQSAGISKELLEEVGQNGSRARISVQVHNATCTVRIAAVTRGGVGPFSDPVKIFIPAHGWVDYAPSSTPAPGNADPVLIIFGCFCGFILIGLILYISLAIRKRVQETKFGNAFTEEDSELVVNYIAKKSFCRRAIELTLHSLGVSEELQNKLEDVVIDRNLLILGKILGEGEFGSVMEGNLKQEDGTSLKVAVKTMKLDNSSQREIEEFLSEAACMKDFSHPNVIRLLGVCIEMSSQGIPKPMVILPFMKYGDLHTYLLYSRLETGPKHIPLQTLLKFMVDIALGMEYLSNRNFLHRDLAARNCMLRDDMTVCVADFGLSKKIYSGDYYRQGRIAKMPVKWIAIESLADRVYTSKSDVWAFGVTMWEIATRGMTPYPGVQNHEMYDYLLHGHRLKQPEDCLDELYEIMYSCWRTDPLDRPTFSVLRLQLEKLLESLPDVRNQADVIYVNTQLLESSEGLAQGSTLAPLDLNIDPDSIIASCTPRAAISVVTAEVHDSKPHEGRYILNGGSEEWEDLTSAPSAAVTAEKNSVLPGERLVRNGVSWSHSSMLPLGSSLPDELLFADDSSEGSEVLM
UniProt Q06418, residues 41-890: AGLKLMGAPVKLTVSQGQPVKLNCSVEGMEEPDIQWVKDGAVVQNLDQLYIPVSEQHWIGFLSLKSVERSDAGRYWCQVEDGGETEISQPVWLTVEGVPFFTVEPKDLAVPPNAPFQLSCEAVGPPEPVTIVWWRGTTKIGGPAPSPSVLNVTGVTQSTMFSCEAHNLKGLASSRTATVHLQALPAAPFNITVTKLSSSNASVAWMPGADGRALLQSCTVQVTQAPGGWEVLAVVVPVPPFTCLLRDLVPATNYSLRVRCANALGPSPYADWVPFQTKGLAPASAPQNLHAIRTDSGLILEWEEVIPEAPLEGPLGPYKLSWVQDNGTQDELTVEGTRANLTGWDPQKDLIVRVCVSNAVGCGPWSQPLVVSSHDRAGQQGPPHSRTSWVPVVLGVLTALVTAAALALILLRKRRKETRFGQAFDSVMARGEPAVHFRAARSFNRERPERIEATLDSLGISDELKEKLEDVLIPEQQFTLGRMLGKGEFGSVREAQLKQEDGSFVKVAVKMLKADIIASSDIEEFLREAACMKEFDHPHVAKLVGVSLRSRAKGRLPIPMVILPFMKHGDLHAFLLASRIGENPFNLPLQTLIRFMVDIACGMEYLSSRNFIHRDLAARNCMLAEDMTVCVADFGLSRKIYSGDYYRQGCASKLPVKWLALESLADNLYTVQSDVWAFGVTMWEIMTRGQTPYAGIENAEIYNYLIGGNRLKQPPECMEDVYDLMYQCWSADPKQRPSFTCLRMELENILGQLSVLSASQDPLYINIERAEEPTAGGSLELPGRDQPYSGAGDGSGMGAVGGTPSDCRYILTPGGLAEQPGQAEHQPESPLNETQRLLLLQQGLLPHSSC
UniProt P30530: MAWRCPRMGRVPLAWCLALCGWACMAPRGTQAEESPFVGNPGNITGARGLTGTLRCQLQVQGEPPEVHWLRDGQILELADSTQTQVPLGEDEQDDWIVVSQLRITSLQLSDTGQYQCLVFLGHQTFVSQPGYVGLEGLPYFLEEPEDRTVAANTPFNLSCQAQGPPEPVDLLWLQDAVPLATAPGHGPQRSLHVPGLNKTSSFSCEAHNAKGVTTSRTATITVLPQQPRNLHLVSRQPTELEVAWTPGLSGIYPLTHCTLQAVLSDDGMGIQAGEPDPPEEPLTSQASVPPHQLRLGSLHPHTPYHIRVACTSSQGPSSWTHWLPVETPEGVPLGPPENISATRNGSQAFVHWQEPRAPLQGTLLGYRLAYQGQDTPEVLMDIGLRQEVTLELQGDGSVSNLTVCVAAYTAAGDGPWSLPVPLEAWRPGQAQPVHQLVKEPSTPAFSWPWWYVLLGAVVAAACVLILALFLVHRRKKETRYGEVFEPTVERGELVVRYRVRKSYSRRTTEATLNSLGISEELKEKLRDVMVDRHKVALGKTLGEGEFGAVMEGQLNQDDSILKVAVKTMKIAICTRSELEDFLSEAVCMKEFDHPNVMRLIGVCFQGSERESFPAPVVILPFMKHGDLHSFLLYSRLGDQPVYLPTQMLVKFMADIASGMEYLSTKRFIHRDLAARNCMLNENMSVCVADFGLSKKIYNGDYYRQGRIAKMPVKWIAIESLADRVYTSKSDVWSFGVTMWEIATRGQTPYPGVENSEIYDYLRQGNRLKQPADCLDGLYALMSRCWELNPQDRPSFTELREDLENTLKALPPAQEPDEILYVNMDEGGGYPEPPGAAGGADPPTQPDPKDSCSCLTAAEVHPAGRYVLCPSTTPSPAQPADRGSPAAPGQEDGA

binding (human MER (human))	binding (human TYRO3 (human))	binding [1]	binding [2]	Binder
no binding (tested: 10 µg/mL)	no binding (tested: 10 µg/mL)	–	–	IgG1-AXL-733 (antibody, V domains shown) VH: QVQLVESGGGVVQPGRSLRLSCAASGFSFSTYAMHWVRQAPGKGLEWVAVISYDGDNKYSADSVKGRFTISRDNSKNTLYLQMNSLRAEDTAVYYCARGRKLGIDAFDIWGQGTMVTVSS VL: AIQLTQSPSSLSASVGDRVTITCRASQGISSALAWYQQKPGKAPKLLIYDASSLESGVPSRFSGSGSGTDFTLTISGLQPEDFATYYCQQFNSYPFTFGPGTKVDIK
–	–	no binding (tested: 1 µg/mL)	no binding (tested: 1 µg/mL)	IgG1-AXL-726 (antibody, V domains shown) VH: QVQLQQWGAGLLKPSETLSLTCAIDGGSFSGYYWSWIRQPPGKGLEWIGEISHSGRTNYNPSLKSRVTISIDTSKNQFSLKLSSVAAADTAVYYCARFITMIRGAIITHFDYWGQGALVTVSS VL: DIQMTQSPSSLSASVGDRVTITCRASQGISSWLAWYQQKPEKAPKSLIYAASSLQSGVPSRFSGSGSGTDFTLTISSLQPEDFATYYCQQYHSYPYTFGQGTKLEIK
no binding (tested: 10 µg/mL)	no binding (tested: 10 µg/mL)	–	–	IgG1-AXL-511 (antibody, V domains shown) VH: EVQLLESGGGLVQPGGSLRLSCAASGFTFSSYAMNWVRQAPGKGLEWVSGISGSGGHTYHADSVKGRFTISRDNSKNTLYLQMNSLRAEDTAVYYCAKDRYDILTGYYNLLDYWGQGTLVTVSS VL: DIQMTQSPSSLSASVGDRVTITCRASQGISSWLAWYQQKPEEAPKSLIYAASSLQSGVPSRFSGSGSGTDFTLTISSLQPEDFATYYCQQYNSYPLTFGGGAKVEIK
no binding (tested: 10 µg/mL)	no binding (tested: 10 µg/mL)	–	–	IgG1-AXL-726-M101L (antibody, V domains shown) VH: QVQLQQWGAGLLKPSETLSLTCAIDGGSFSGYYWSWIRQPPGKGLEWIGEISHSGRTNYNPSLKSRVTISIDTSKNQFSLKLSSVAAADTAVYYCARFITLIRGAIITHFDYWGQGALVTVSS VL: DIQMTQSPSSLSASVGDRVTITCRASQGISSWLAWYQQKPEKAPKSLIYAASSLQSGVPSRFSGSGSGTDFTLTISSLQPEDFATYYCQQYHSYPYTFGQGTKLEIK
no binding (tested: 10 µg/mL)	no binding (tested: 10 µg/mL)	–	–	IgG1-AXL-148 (antibody, V domains shown) VH: EVQLLESGGGLVQPGGSLRLSCAASGFTFSSYAMTWVRQAPGKGLEWVSAISISGGSTFYADSVKGRFTISRDNSKNTLYLQMNSLRAEDTAVYYCRGYSGYVYDAFDFWGQGTMVTVSS VL: DIQMTQSPSSLSASVGDRVTITCRASQGISNWLAWYQQKPEKAPKSLIYAASSLQSGVPSRFSGSGSGTDFTLTISSLQPEDFATYYCQQYNSYPLTFGGGTKVEIK
no binding (tested: 10 µg/mL)	no binding (tested: 10 µg/mL)	–	–	IgG1-AXL-183-N52Q (antibody, V domains shown) VH: QVQLQQWGAGLLKPSETLSLTCAVYGGSFSGYYWSWIRQPPGKGLEWIGEIQQSGSTNYNPSLKSRVTISVDTSKNQFSLKLSSVTAADTSVYYCASGNWDHFFDYWGQGTLVTVSS VL: DIQMTQSPSSVSASVGDRVTITCRASQGISSWLAWYQHKPGKAPKLLIYATSSLQSGVTSRFSGSGSGTDFTLTISSLQPEDFATYYCQQAKSFPWTFGQGTKVEIK

From patent US20170157250A1
